Measured values reported in patent US6413773B1, “Phosphatidylinositol 3-kinase inhibitors as stimulators of endocrine differentiation” (The Regents of the University of California, priority 1998, dated 2002).
For some of these results: For at least one compound, name, drawing or mass did not settle the structure. Some entries share one result that the patent states for a list of compounds.

Experiments:
PI3K = PI3K assay on immunoprecipitates from treated fetal ICCs; type: cell-based, human; conditions: 100 nM wortmannin or 10 μM Ly294002, continuous 5 d
Excerpt: The use of human fetal tissue for these studies was reviewed and approved by the Institutional Review Board at our university. Human fetal pancreases at 18-24 gestational wk were obtained with appropriate permissions and patient consent through nonprofit organ procurement programs (Advanced Bioscience Resources, Oakland, Calif.; Anatomic Gift Foundation, Laurel, Md.). Experiments were started by the enzymatic digestion with collagenase P (Boehringer Mannheim Corp., Indianapolis, Ind.) of the human fetal pancreases followed by tissue culture for 5 d, which led to the formation in vitro of ICCs, as previously described in detail (Otonkoski et al. (1993) J. Clin. Invest. 92:1459-1466). […]
Aliquots of cell lysates normalized for protein content were incubated for 3 h with antiPI3K antibodies directed against the 85kD regulatory subunit or with antiphosphotyrosine antibodies (Upstate Biotechnology, Inc., Lake Placid, N.Y.). […] After the incubation, the reaction was stopped with methanol plus 2.4 N HCl (1:1, vol/vol), and lipids were extracted, analyzed by thin-layer chromatography, and quantified as described previously (Ptasznik et al. (1995) J. Biol. Chem. 270:19969-19973). In some experiments, the direct binding of PI3K to p190Met after HGF/SF stimulation of islet cells was determined, as previously described in detail (Graziani, et al. (1991) J. Biol. Chem. 266:22087-22090).

human fetal ICCs [1] = experiment: Triple immunofluorescence, confocal microscopy and morphometric analysis; type: cell-based; conditions: blockade of PI3K activity in culture
Method: ICCs cultured for 5 d in either control medium or medium containing 10 μM Ly 294002 were paraffin embedded, and […] sections were stained for hormone immunoreactivity. To simultaneously identify cells producing insulin, glucagon, somatostatin, and pancreatic polypeptide (pp), we followed a modification of our previous protocol for multiple labeling (Otonkoski et al. (1996) J. Clin. Invest. 79:351-358). […]
Sections were prepared from control and Ly294002 treated ICCs from three independent experiments. […] All images collected (one image per section) were then analyzed for total surface area and insulin, glucagon, somatostatin, and positive cell surface area by using measurement tools in the software NIH Image 1.60 (National Institutes of Health, Bethesda, Md.). Data were analyzed in Stat View 4.01 (Abacus Concepts, Inc., Berkeley, Calif.) for calculation of mean, standard deviation, and parametric statistic (t test).

PIP3 = experiment: Determination of total cellular PIP3 in [32P]orthophosphate-labeled ICCs; type: cell-based, human; conditions: 100 nM wortmannin or 10 μM Ly294002, intact labeled islet cells
Method: The ICCs, which were pretreated for 5 d with PI3K inhibitors, NIC, HGF/SF, or control buffer, were subsequently harvested and suspended at a concentration of 2 3 10 5 cells/ml in buffer A (30 mM Hepes, pH 7.2, 110 mM NaCl, 10 mM KCl, 1 mM MgCl2, 10 mM glucose), and 1 mCi/ml [^32P]orthophosphate ([…]; DuPont/NEN) was added. The cells were incubated at 37° C. for 2 h and then washed 3× with buffer A. Depending on the type of experiment, the labeled islet cells were either directly lysed by addition of 3 ml chloroform/methanol (1:2, vol/vol), followed by 4 ml chloroform/2.4 M HCl (1: 1, vol/vol) (to measure basal levels of PIP3 ), or labeled cells were first stimulated with 25 ng/ml HGF/SF for the indicated times, and subsequently the reaction was stopped as above (to measure the inducible levels of PIP3 ). Phospholipids were extracted and analyzed by thinlayer chromatography, and the total cellular PIP3 was quantified, as we described previously in detail (Ptasznik et al. (1996) J. Biol. Chem. 271 :25204-25207).

human fetal ICCs [2] = experiment: [3H]thymidine incorporation into DNA; type: cell-based; conditions: ICCs 5 d with inhibitor, FIG. 4A
Method: After incubation with various factors in culture, the ICCs were harvested, and measurements of insulin content, insulin release in response to glucose plus theophylline, and [^3H]thymidine incorporation into DNA were performed as described previously (Otonkoski et al. (1993) J. Clin. Invest. 92:1459-1466).

human fetal ICCs [3] = experiment: Insulin content and insulin release of ICCs; type: cell-based; conditions: ICCs cultured 5 d with inhibitor
Excerpt: The use of human fetal tissue for these studies was reviewed and approved by the Institutional Review Board at our university. Human fetal pancreases at 18-24 gestational wk were obtained with appropriate permissions and patient consent through nonprofit organ procurement programs (Advanced Bioscience Resources, Oakland, Calif.; Anatomic Gift Foundation, Laurel, Md.). Experiments were started by the enzymatic digestion with collagenase P (Boehringer Mannheim Corp., Indianapolis, Ind.) of the human fetal pancreases followed by tissue culture for 5 d, which led to the formation in vitro of ICCs, as previously described in detail (Otonkoski et al. (1993) J. Clin. Invest. 92:1459-1466). […] After incubation with various factors in culture, the ICCs were harvested, and measurements of insulin content, insulin release in response to glucose plus theophylline, and [^3H]thymidine incorporation into DNA were performed as described previously (Otonkoski et al. (1993) J. Clin. Invest. 92:1459-1466).

[4] = system: islet hormone gene expression in human fetal ICCs; experiment: Multiprobe ribonuclease protection assay of islet hormone mRNA; type: cell-based; conditions: ICCs 5 d, 100 nM wortmannin or 10 μM Ly294002, FIG. 1
Excerpt: The use of human fetal tissue for these studies was reviewed and approved by the Institutional Review Board at our university. Human fetal pancreases at 18-24 gestational wk were obtained with appropriate permissions and patient consent through nonprofit organ procurement programs (Advanced Bioscience Resources, Oakland, Calif.; Anatomic Gift Foundation, Laurel, Md.). Experiments were started by the enzymatic digestion with collagenase P (Boehringer Mannheim Corp., Indianapolis, Ind.) of the human fetal pancreases followed by tissue culture for 5 d, which led to the formation in vitro of ICCs, as previously described in detail (Otonkoski et al. (1993) J. Clin. Invest. 92:1459-1466). […] Transcriptional analyses on total RNA ([…]) were performed using a multiprobe ribonuclease protection assay, as previously described (Otonkoski et al. (1993) J. Clin. Invest. 92:1459-1466). The housekeeping gene cyclophilin was used as an internal control, and yeast tRNA (10 μM) was included as a negative control. Probes used were of human origin and were described previously (Otonkoski et al. (1993) J. Clin. Invest. 92:1459-1466). Target RNAs were quantitated in autoradiographs by scanning densitometry (LKB UltroScan XL Laser) and integrated using Gel Scan XL software (Pharmacia LKB Biotechnology, Inc., Piscataway, N.J.). The probe-specific mRNA signals were normalized to the cyclophilin signal in each sample to account for differences in sample loading between lanes.

SMILES | block of total PI3K activity in intact fetal islet cells (PI3K) | number of hormone producing cells growing in ICCs (human fetal ICCs [1]) | rise in PIP3 formation stimulated by growth factors (PIP3) | [3H]thymidine incorporation into DNA (human fetal ICCs [2]) | insulin content per cellular DNA versus untreated control (human fetal ICCs [3]; FIG. 2A) | insulin secretion per cellular DNA versus untreated control (human fetal ICCs [3]; glucose plus theophylline, FIG. 2B) | transcriptional level of glucagon [4] | transcriptional level of insulin [4] | transcriptional level of somatostatin [4]
O=c1cc(N2CCOCC2)oc2c(-c3ccccc3)cccc12 [Ly294002, 2-(4-Morpholinyl)-8-phenyl-4 H-1-benzopyran-4-one] | over 90% |  |  |  |  |  |  |  | 
COC[C@H]1OC(=O)c2coc3c2[C@@]1(C)C1=C(C3=O)[C@@H]2CCC(=O)[C@@]2(C)C[C@H]1OC(C)=O [wortmannin] | over 90% | significantly increased | almost completely inhibited | significantly decreased | to a lesser extent | to a lesser extent | increased | increased | increased
